Test: general procedure: solution-phase peptide synthesis; DCC/HOBt
Conditions: coupling step

Row | Substance | step yield
1 | (m)Lys(Boc)-Asp(Bu^t)-Val-Tyr(Bu^t)-OBu^t (step 2) | 76%
2 | [(m)Lys(Boc)-(D)-Arg(Mtr)NH2 ]-Asp(Bu^t)-Val-Tyr(Bu^t)-OBu^t | 90%

Source: patent US5116947 (dated 1992)
